The values that follow come from PMC6536593.

Amino acid sequences for entries named in this document (tags omitted).
UniProt D4A523: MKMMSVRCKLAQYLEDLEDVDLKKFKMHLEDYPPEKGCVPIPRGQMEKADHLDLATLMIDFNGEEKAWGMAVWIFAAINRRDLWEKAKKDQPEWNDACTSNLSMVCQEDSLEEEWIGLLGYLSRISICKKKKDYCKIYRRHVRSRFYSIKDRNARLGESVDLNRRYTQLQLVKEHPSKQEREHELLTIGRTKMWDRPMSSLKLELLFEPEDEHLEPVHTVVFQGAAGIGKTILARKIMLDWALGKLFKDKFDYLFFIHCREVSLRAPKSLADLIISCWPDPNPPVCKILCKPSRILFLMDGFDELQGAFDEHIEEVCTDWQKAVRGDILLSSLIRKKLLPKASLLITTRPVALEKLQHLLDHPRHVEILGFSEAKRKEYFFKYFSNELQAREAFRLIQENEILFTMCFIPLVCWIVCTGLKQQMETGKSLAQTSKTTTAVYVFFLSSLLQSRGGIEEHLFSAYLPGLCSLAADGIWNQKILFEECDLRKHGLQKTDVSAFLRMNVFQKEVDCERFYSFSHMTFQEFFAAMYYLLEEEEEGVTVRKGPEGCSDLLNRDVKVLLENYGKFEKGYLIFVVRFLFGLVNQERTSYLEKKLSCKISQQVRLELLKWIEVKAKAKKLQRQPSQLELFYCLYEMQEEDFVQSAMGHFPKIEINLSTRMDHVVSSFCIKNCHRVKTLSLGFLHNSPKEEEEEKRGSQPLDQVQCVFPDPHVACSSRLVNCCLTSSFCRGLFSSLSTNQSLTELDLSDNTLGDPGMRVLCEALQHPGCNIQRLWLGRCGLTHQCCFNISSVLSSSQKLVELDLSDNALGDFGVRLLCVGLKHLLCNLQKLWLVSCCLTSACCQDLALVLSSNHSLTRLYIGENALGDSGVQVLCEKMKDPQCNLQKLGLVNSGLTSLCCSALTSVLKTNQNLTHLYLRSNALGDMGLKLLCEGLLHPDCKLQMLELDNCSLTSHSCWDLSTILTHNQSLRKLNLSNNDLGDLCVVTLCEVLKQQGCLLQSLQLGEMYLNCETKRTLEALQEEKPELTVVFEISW
UniProt Q8R4B8: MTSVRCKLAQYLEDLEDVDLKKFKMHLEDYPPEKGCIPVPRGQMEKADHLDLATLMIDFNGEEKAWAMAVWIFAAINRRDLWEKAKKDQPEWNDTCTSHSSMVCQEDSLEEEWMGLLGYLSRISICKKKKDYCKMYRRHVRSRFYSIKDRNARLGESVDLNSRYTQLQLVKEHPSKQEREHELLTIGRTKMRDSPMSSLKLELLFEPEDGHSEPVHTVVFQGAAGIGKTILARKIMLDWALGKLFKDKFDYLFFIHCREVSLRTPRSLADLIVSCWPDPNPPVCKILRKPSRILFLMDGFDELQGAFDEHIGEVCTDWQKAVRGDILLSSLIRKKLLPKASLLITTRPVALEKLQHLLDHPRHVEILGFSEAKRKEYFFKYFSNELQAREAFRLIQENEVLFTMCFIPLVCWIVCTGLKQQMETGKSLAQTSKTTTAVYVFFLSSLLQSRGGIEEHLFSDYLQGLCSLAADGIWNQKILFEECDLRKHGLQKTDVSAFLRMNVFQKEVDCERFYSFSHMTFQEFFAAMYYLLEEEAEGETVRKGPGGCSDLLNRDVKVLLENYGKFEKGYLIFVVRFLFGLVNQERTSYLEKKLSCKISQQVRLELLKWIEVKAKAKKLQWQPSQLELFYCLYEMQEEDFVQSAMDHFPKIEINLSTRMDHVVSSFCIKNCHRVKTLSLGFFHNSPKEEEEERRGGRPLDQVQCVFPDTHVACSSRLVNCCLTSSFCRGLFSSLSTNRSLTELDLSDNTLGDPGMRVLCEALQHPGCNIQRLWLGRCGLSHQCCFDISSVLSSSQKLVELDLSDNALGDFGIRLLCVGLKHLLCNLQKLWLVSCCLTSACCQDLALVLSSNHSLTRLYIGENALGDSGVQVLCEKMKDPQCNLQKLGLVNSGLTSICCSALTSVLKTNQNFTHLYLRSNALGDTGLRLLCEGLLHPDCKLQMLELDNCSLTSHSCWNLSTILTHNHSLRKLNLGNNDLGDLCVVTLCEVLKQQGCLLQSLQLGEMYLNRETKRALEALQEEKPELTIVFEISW

No constants are given. Whether binding was seen depends on the method and setting. Binding seen in cells or lysates may run through a third protein. Some binding calls cover weakened binding; strength is not graded here.

Experiment [1] concerns the target T1, Endogenous TxNIP of INS1 832/13 cells (rat (endogenous in INS1 832/13)) (UniProt Q5M7W1).
T1 sequence: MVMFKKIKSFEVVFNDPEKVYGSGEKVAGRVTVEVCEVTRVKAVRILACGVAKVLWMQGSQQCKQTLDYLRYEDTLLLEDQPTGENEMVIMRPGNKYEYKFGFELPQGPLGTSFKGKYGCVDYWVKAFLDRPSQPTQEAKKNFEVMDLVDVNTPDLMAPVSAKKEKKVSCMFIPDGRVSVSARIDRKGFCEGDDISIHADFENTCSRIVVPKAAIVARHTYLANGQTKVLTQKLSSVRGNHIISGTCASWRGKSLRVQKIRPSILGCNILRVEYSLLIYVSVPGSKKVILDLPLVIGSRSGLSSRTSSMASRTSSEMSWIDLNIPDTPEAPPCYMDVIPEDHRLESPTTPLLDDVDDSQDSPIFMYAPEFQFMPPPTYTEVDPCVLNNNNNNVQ
In words: co-IP; endogenous proteins in INS1 832/13 cells, 24 h at 2.5 mM or 20 mM glucose supplemented with PUGNAc; lysis in IPH buffer; IP with anti-TxNIP antibody overnight at 4°C, protein G Sepharose; blot with anti-NLRP3.

Experiment [2] has as its target T2, Thioredoxin interacting protein (TxNIP), expressed from a plasmid in HEK293 cells (UniProt Q9H3M7).
T2 sequence (chain, O-GlcNAcylated to varying degree (sites not identified)): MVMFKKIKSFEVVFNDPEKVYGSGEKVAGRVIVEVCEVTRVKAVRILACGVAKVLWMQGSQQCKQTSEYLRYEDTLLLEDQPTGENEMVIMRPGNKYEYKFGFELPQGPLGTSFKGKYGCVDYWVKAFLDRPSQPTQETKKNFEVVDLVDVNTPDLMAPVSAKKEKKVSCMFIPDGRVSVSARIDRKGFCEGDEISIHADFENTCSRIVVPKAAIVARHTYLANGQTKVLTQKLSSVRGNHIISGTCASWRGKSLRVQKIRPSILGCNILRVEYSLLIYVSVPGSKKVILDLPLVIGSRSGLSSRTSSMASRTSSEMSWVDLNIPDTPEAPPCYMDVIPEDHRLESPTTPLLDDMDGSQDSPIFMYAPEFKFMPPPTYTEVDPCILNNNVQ
In words: co-IP; HEK293 cells co-transfected with TxNIP and NLRP3-FLAG (with or without OGT or OGA plasmids), 24 h at 5 mM or 25 mM glucose, or 5 mM glucose with PUGNAc and glucosamine; lysis in IPH buffer (20 mmol/L Tris/HCl, 150 mmol/L NaCl, 0.5% NP-40); IP with anti-TxNIP antibody overnight at 4°C, protein G Sepharose; blot with anti-Flag.

Consider “Endogenous NLRP3 of INS1 832/13 cells (from UniProt D4A523 1-1035)”, for which, in experiment [1], the binding result is on record as “binds”.
“NLRP3 (NOD-like receptor family pyrin domain containing 3) tagged with a FLAG epitope (from UniProt Q8R4B8 1-1033)”: the binding entry in experiment [2] was “binds”.
